Experimental data published in PubChem BioAssay AID1347423 (Functional Genomics Laboratory (NCATS/FGL), 2020).
Out of some 52,000 sequences screened, about 210 (0.4%) were called active.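 Rule for the calls: active = gene whose silencing raises cell survival under the drug, median off-target-corrected z-score across its silencing RNAs 2 or more; inactive = the rest.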 The list shows a part of the results.

test: Resistance to Poly (ADP-Ribose) Polymerase inhibitor: Gene Identification via Genome-wide siRNA Screen; details: mouse BRCA2 R2336H ES cells, olaparib, CellTiter-Glo viability; hits give high values
Procedure, shortened: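 Mouse BRCA2 R2336H ES cells were reverse-transfected with siRNA (20 nM final), treated at 48 h with 500 nM olaparib, and read by CellTiter-Glo after 72 h. Scores: MAD-based z per siRNA, median per gene, seed off-target correction.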

| Sequence | z-score |
| --- | --- |
| GCGUCUCAUAGAGUUGGUGTT against 2900024O10Rik | inactive: 0.145 |
| GCAGAAAAUACCCAGUUUGTT against Hmox2 | inactive: 1.02 |
| GGGCAUCAUCACUUGUGCCTT against Crim2 | inactive: 0.317 |
| GGAAAAUCAACAGCAUCAATT against Olfr661 | inactive: -0.0718 |
| GGAAAUGAAGGAAAAGGAATT against 5730405I09Rik | inactive: 0.0154 |
| GCCUGUGCAAAAAGUAGGGTT against Grasp | inactive: 0.137 |
| GGAGUAUGAAUUUGUGACUTT against Arhgdig | inactive: -1.08 |
| GUGUCUUGGGAAACAACUUTT against Gchfr | inactive: 0.478 |
| GCAGAAAGAAUGCAGAUAATT against Zfp281 | inactive: -1.9 |
| CGUACUCCGAAUUCAUGCATT against 2610003J06Rik | inactive: 0.144 |
| GGAGAGUAAAUACCGACAGTT against Homer2 | inactive: 2.85 |
| GGUUGUGUUGCUAAUCUUUTT against Trf3 | inactive: -0.649 |
| GGGAUACUGGUGCUUAACUTT against Abhd1 | inactive: 0.661 |
| GGCCACCUUGUGUUUAUCUTT against Lrg1 | inactive: 1.78 |
| AUACAACAGCACAACUGAUTT against BC015286 | inactive: 0.104 |
| GCAAUGCAUGAAGACUCGUTT against Sitpec | inactive: -1.05 |
| CCAGUUUAUUGAGAAUAAGTT against Rab4b | inactive: 1.06 |
| GGUUCUCAGUCAUAUUUACTT against Fbxl12 | inactive: 0.599 |
| GGAAGAGGAGGAACAGAGATT against Hmga1l4 | inactive: 1.42 |
| GCAUUGUGGAACAAACCUATT against Gabpa | inactive: -2.36 |
| GGGCUUUGGCUACAAAGGCTT against Ppif | inactive: -0.35 |
| GGAAGAAGCCAAAAUUGAATT against Pdgfa | inactive: 1.24 |
| CGACUUGACAUCGUCAGUATT against Cno | inactive: -0.0146 |
| CCAAAAGCUUUUGUGUUCATT against 1200006O19Rik | inactive: -0.905 |
| GGAGCUACCCGACAUACUGTT against Cfi | inactive: 1.06 |
| GGGUUUAGACGUAGAUUCUTT against Rpl17 | inactive: -3.07 |

| Sequence | z-score |
| --- | --- |
| GGGACCAGAAUAUGACUGGTT against Ppp2cz | inactive: -0.348 |
| GCGUGUAUACCAGCCUUACTT against Egfl7 | inactive: -3.23 |
| GCCGGAUGUUCUUUGGCAATT against 2610012O22Rik | inactive: -0.683 |
| GGCAUGAUGAUAUUUGAAATT against Glrp1 | inactive: -0.524 |
| GCUCUCCACUGACUUAGUATT against Mrgpra3 | inactive: 0.285 |
| GGUCAUGAUGAAUGAGACUTT against Cstf1 | inactive: 1.05 |
| CCUGUACCUGACCAAACCUTT against Socs2 | inactive: -0.498 |
| GGUCUUAUGUAAGUGGUAUTT against Asrij | inactive: -1.28 |
| GGUGAACUGAAAAUUCUAGTT against Usp12 | inactive: 0.882 |
| GGAAGCAUUUGAAGUUAAATT against Prdm16 | inactive: 0.00871 |
| CCAUACUACGGAUGUUUGATT against Calb2 | inactive: 0.535 |
| CCAUGUCAAAGAAAAACCATT against Rfx2 | inactive: 0.0165 |
| GGAUUCCUGGUCUUUAAGCTT against Zfp7 | inactive: 0.136 |
| GGUCAGCAUUAUCAAGCCUTT against Hsd11b2 | inactive: 2.61 |
| GGAGAGAAAGGAAAUGUUUTT against D5Ertd135e | inactive: -1.6 |
| GGUCACACCCACCAUUACGTT against Serpina11 | inactive: -1.79 |
| GGAUCCUAAUGAGGACAUUTT against Igj | inactive: 1.15 |
| CCUAUUGACUGUGAGCUAUTT against C8b | inactive: -1.18 |
| CGUAGAGAGUCUCCCAUCATT against 4930474N05 | inactive: -0.0472 |
| GGAACAAAUAAAUCAGGGATT against Smc6l1 | inactive: -0.89 |
| UCAACCAAACAAUCCUGAATT against Olfr417 | inactive: 0.443 |
| GGAUGUGAUCCUACUGACATT against Hspc171 | inactive: -1.37 |
| GGUCAUCCUCAAGUCUCCUTT against Stmn3 | inactive: 0.261 |
| GGACGAUGAAGACAGCAAGTT against Scn8a | inactive: 0.983 |
| GGGAAAAAGAGCUUUUAGCTT against Helt | inactive: 0.211 |
| GGUGUUGCUGUGUUUUAUATT against Olfr1259 | inactive: 1.04 |

Some of the entries so far, bar-delimited:
Sequence | z-score
GGAAGCAUUUGAAGUUAAATT against Prdm16 | inactive: 0.00871
CCAUACUACGGAUGUUUGATT against Calb2 | inactive: 0.535
CCAUGUCAAAGAAAAACCATT against Rfx2 | inactive: 0.0165
GGAUUCCUGGUCUUUAAGCTT against Zfp7 | inactive: 0.136
GGUCAGCAUUAUCAAGCCUTT against Hsd11b2 | inactive: 2.61

Remaining list, next part

| Sequence | z-score |
| --- | --- |
| CGACAUGGAGACAAUCUAUTT against Ptges | inactive: -1.04 |
| GAGAUGGAUGGAAAAAAAATT against 1700127D06Rik | inactive: -0.00882 |
| GGACGACUGGAAGUUUUCUTT against 5830411N06Rik | inactive: -1.02 |
| GGAAUGUUAAUGAUGCAGATT against Nmb | inactive: -0.521 |
| GGUUUGUGUCCAGCUGCUUTT against Olfr502 | inactive: -1.96 |
| GGCGAAAAUAAGUUGAAAATT against Bhlhb5 | inactive: 0.915 |
| GGAGAAACAGUUGUCAACUTT against 4930535B03Rik | inactive: -1.57 |
| GGGAUUGUGAAUUUCAUGUTT against Gca | inactive: -0.598 |
| GCCAGAGAUUCCUCAACGATT against Rpp21 | inactive: -0.37 |
| GGCCUUUACACGUGAGUCUTT against B230312I18Rik | inactive: 0.962 |
| GGGUGGUUUUAGUGUACUATT against Mrgpra7 | inactive: -1.14 |
| CCUUCAGUGCUGUAGUGUATT against Rasl10b | inactive: 0.108 |
| GGGAGAGAAAUCCCAUUCUTT against Bsnd | inactive: -0.446 |
| CGCGAACUCUCCCUUACUUTT against 4931440L10Rik | inactive: 0.958 |
| GGCUACAGGGAACAUAGAGTT against Map17 | inactive: -0.439 |
| CGCCAUCAAAUAUGAAGCATT against Vps4a | inactive: -0.298 |
| GGCAACGGAAGAAAAUUAATT against 4930429B21Rik | inactive: -0.82 |
| GGUUCUAUUUGUGAAAAGUTT against Adam10 | inactive: 0.789 |
| GGAUGCUGGCUGAUUUUCUTT against Olfr1019 | inactive: -0.876 |
| GGAAUUUGGUCUAUGCUUGTT against Stra6 | inactive: -0.0623 |
| CCUCGAUAUGAGUUUUUGATT against 9130413I22Rik | inactive: 0.603 |
| GGAUGCUAAAAAUGCGGGATT against LOC223706 | inactive: -0.125 |
| CCUUAUUUGCUUAUCAUAGTT against Zfp367 | inactive: -0.551 |
| GGACAUCUGACAUCCAGUGTT against Pmvk | inactive: -0.7 |
| CGAAAAUCGAGAAUUCUUCTT against Nalp9b | inactive: 0.292 |
| CCAUCCUAAAGAAUGUUAATT against Nf1 | inactive: -2.13 |

| Sequence | z-score |
| --- | --- |
| GGAAUUUAAGCAGAAUGUGTT against Fcho1 | inactive: -0.603 |
| GGAGCUGUGCGGUCUGUUATT against 0610009K11Rik | inactive: -0.572 |
| GGACAUCGAAGUCCAACACTT against Plekhm1 | inactive: 1.35 |
| GGUUGUAGGAAUAAUUGAATT against Nup160 | inactive: -1.59 |
| CCAACUAAGAUGGAUCAAUTT against Commd2 | inactive: -0.097 |
| GGAAGCCAAUGUCAAGUGCTT against Cbx1 | inactive: -0.293 |
| GGACAUCAUUGAUGGAUUUTT against D830032G16Rik | inactive: 1.15 |
| GCCUGACGAAGGUUUCUAUTT against Neo1 | inactive: 0.0676 |
| GGAACAGACAUAUAAGCAUTT against Blvra | inactive: 0.882 |
| GCACUUACACUCUGUUUAATT against Fgf13 | inactive: -0.219 |
| GGAGAACUGUAAAUAAACUTT against 9030623N16Rik | inactive: -0.203 |
| GCCCUCAGGUGGUUCUUAATT against C030036P15Rik | inactive: -1.76 |
| GCUCAUCUUAUCCUCUAAGTT against Cts7 | inactive: -0.231 |
| GGUACGACUUGGAAGAAAUTT against Rock2 | inactive: -0.0405 |
| CCACUAGCUAUCUCAUACCTT against Tktl1 | inactive: 0.385 |
| GGUGAAAUUGCUCAGAUAATT against 4430402O11Rik | inactive: -0.162 |
| GGCAUCACUUUCUUUCCUUTT against D230019K24Rik | inactive: 0.115 |
| GGAUUUUCCAGCCAAGGAATT against 4122402O22Rik | inactive: -0.488 |
| GGCUUUUUGAGGUAUUUCATT against 9630008K15Rik | inactive: -1.8 |
| GGUUCCAACAAUUGUAAAGTT against Chl1 | active: 2.35 |
| CCGGCAAUGACUGUGAAUCTT against Adamts7 | inactive: 0.0748 |
| GGAUCCAUCUGUUGGCAACTT against Slc5a2 | inactive: 0.167 |
| CCUCCUGAUAUCGAGUUCCTT against Dnm1 | inactive: 0.281 |
| GGAUCACAACAAAAUAUCCTT against LOC622129 | inactive: 0.262 |
| GCAUCGAUCUUGAGUUAGATT against Hebp1 | inactive: -0.48 |
| CCUGUAUUGGGAACAAUGUTT against 2900006N09Rik | inactive: -0.823 |
